Data source: PubChem BioAssay AID1159584 (Peter MacCallum Cancer Centre, 2016)
Aim: 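Knock-downs that harm CDH1-null cells more than parental MCF10A cells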 (primary screen). Cell system: human MCF10A breast epithelial cells, parental and CDH1-null. Reagents: siRNA against human genes. Measurement: 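ATP luminescence (CellTiter-Glo) viability per line relative to mean mock wells over all plates, and the ratio of CDH1-null to parental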. Scale: CDH1-null / parental viability ratio: higher = CDH1-null cells survive relatively better than parental; CDH1-null viability vs mock: higher = more viable CDH1-null cells. Units: CDH1-null viability vs mock in fraction of mock.
This is a random part of about 18,000 deposited reagents. Reagents against one gene are numbered here. Not all columns of the deposit are shown. Reagent sequences are not shown. The record does not give: the amount of reagent, the time to read-out.

SERPINB13 (serpin family B member 13) gave CDH1-null / parental viability ratio 0.75; CDH1-null viability vs mock 0.6.
Silencing of GIMAP5 (GTPase, IMAP family member 5) resulted in: CDH1-null / parental viability ratio 0.94; CDH1-null viability vs mock 0.58.
For L3MBTL1 (L3MBTL histone methyl-lysine binding protein 1) the deposit lists CDH1-null / parental viability ratio 0.98; CDH1-null viability vs mock 0.94.
AKAP3 (A-kinase anchoring protein 3) gave CDH1-null / parental viability ratio 1.04; CDH1-null viability vs mock 0.84.
With knock-down of STAP2 (signal transducing adaptor family member 2) the results were CDH1-null / parental viability ratio 1.14; CDH1-null viability vs mock 0.96.
Knock-down of NEBL (nebulette) #1 resulted in: CDH1-null / parental viability ratio 0.95; CDH1-null viability vs mock 1.02.
Against NEBL (nebulette) #2, the entry reads CDH1-null / parental viability ratio 1.25; CDH1-null viability vs mock 0.74.
With knock-down of ABLIM3 (actin binding LIM protein family member 3) the results were CDH1-null / parental viability ratio 1.32; CDH1-null viability vs mock 0.54.
After knock-down of ZBTB47 (zinc finger and BTB domain containing 47), the screen gave CDH1-null / parental viability ratio 0.79; CDH1-null viability vs mock 0.92.
ST8SIA2 (ST8 alpha-N-acetyl-neuraminide alpha-2,8-sialyltransferase 2) showed CDH1-null / parental viability ratio 1.22; CDH1-null viability vs mock 0.66.
Silencing of TCERG1 (transcription elongation regulator 1) resulted in: CDH1-null / parental viability ratio 0.92; CDH1-null viability vs mock 0.96.
After knock-down of USP31 (ubiquitin specific peptidase 31), the record shows CDH1-null / parental viability ratio 1.19; CDH1-null viability vs mock 0.88.
With knock-down of CHN1 (chimerin 1), the record shows CDH1-null / parental viability ratio 1.23; CDH1-null viability vs mock 0.76.
SPATA31G1 (SPATA31 subfamily G member 1) showed CDH1-null / parental viability ratio 1.18; CDH1-null viability vs mock 0.8.
Depletion of FGFRL1 (fibroblast growth factor receptor like 1) gave: CDH1-null / parental viability ratio 1.21; CDH1-null viability vs mock 1.04.
Depletion of IFITM3 (interferon induced transmembrane protein 3) gave: CDH1-null / parental viability ratio 1; CDH1-null viability vs mock 0.7.
After knock-down of CNTN3 (contactin 3) the results were CDH1-null / parental viability ratio 0.92; CDH1-null viability vs mock 0.8.
SPATA31A7 (SPATA31 subfamily A member 7) gave CDH1-null / parental viability ratio 0.89; CDH1-null viability vs mock 0.77.
Against NIPA1 (NIPA magnesium transporter 1) the deposit lists CDH1-null / parental viability ratio 1.05; CDH1-null viability vs mock 0.85.
Knock-down of NPIPA1 (nuclear pore complex interacting protein family member A1) resulted in: CDH1-null / parental viability ratio 1.04; CDH1-null viability vs mock 0.96.
FGL2 (fibrinogen like 2) gave CDH1-null / parental viability ratio 0.99; CDH1-null viability vs mock 1.07.
CERS6 (ceramide synthase 6) scored CDH1-null / parental viability ratio 1.15; CDH1-null viability vs mock 1.06.
For MAD1L1 (mitotic arrest deficient 1 like 1), the entry reads CDH1-null / parental viability ratio 1.44; CDH1-null viability vs mock 0.72.
Against KLHL11 (kelch like family member 11), the values are CDH1-null / parental viability ratio 1.12; CDH1-null viability vs mock 1.12.
After knock-down of LPGAT1 (lysophosphatidylglycerol acyltransferase 1), the screen gave CDH1-null / parental viability ratio 1.13; CDH1-null viability vs mock 1.12.
With knock-down of PCBD1 (pterin-4 alpha-carbinolamine dehydratase 1) the results were CDH1-null / parental viability ratio 0.88; CDH1-null viability vs mock 0.81.
PLEKHA7 (pleckstrin homology domain containing A7) gave CDH1-null / parental viability ratio 1.05; CDH1-null viability vs mock 0.82.
LPCAT2 (lysophosphatidylcholine acyltransferase 2) showed CDH1-null / parental viability ratio 0.98; CDH1-null viability vs mock 0.59.
SMARCAD1 (SNF2 related chromatin remodeling ATPase with DExD box 1) scored CDH1-null / parental viability ratio 1.02; CDH1-null viability vs mock 0.88.
Silencing of PRKCD (protein kinase C delta) came out at: CDH1-null / parental viability ratio 1.07; CDH1-null viability vs mock 0.86.
For FIRRM (FIGNL1 interacting regulator of recombination and mitosis), the entry reads CDH1-null / parental viability ratio 0.86; CDH1-null viability vs mock 0.51.
With knock-down of SNX24 (sorting nexin 24) the results were CDH1-null / parental viability ratio 1.19; CDH1-null viability vs mock 1.07.
MINAR1 (membrane integral NOTCH2 associated receptor 1) showed CDH1-null / parental viability ratio 1.07; CDH1-null viability vs mock 0.78.
After knock-down of OTOGL (otogelin like), the screen gave CDH1-null / parental viability ratio 1.1; CDH1-null viability vs mock 0.9.
Against SPATS1 (spermatogenesis associated serine rich 1), the values are CDH1-null / parental viability ratio 0.94; CDH1-null viability vs mock 0.62.
With knock-down of GRB14 (growth factor receptor bound protein 14), the screen gave CDH1-null / parental viability ratio 0.86; CDH1-null viability vs mock 0.5.
Silencing of GATM (glycine amidinotransferase) resulted in: CDH1-null / parental viability ratio 1.07; CDH1-null viability vs mock 0.62.
For LUC7L3 (LUC7 like 3 pre-mRNA splicing factor), the entry reads CDH1-null / parental viability ratio 1.02; CDH1-null viability vs mock 0.58.
Knock-down of SP8 (Sp8 transcription factor) resulted in: CDH1-null / parental viability ratio 0.89; CDH1-null viability vs mock 0.55.
Against FIBIN (fin bud initiation factor homolog), the values are CDH1-null / parental viability ratio 0.83; CDH1-null viability vs mock 0.48.
GCSH (glycine cleavage system protein H) showed CDH1-null / parental viability ratio 0.91; CDH1-null viability vs mock 0.75.
Knock-down of ADAM22 (ADAM metallopeptidase domain 22) gave: CDH1-null / parental viability ratio 1.11; CDH1-null viability vs mock 0.89.
TMEM216 (transmembrane protein 216) scored CDH1-null / parental viability ratio 0.89; CDH1-null viability vs mock 0.75.
Depletion of GATA3 (GATA binding protein 3) resulted in: CDH1-null / parental viability ratio 0.98; CDH1-null viability vs mock 0.88.
PCSK9 (proprotein convertase subtilisin/kexin type 9) scored CDH1-null / parental viability ratio 0.73; CDH1-null viability vs mock 0.3.

Targets above whose gene name begins with L or l (4):
L3MBTL1 (L3MBTL histone methyl-lysine binding protein 1) — CDH1-null / parental viability ratio = 0.98; CDH1-null viability vs mock = 0.94
LPGAT1 (lysophosphatidylglycerol acyltransferase 1) — CDH1-null / parental viability ratio = 1.13; CDH1-null viability vs mock = 1.12
LPCAT2 (lysophosphatidylcholine acyltransferase 2) — CDH1-null / parental viability ratio = 0.98; CDH1-null viability vs mock = 0.59
LUC7L3 (LUC7 like 3 pre-mRNA splicing factor) — CDH1-null / parental viability ratio = 1.02; CDH1-null viability vs mock = 0.58
